## Results of single-concentration screens

Chains of the proteins cited; added tags and fusions are not shown.
UniProt I6X8D2, whole entry: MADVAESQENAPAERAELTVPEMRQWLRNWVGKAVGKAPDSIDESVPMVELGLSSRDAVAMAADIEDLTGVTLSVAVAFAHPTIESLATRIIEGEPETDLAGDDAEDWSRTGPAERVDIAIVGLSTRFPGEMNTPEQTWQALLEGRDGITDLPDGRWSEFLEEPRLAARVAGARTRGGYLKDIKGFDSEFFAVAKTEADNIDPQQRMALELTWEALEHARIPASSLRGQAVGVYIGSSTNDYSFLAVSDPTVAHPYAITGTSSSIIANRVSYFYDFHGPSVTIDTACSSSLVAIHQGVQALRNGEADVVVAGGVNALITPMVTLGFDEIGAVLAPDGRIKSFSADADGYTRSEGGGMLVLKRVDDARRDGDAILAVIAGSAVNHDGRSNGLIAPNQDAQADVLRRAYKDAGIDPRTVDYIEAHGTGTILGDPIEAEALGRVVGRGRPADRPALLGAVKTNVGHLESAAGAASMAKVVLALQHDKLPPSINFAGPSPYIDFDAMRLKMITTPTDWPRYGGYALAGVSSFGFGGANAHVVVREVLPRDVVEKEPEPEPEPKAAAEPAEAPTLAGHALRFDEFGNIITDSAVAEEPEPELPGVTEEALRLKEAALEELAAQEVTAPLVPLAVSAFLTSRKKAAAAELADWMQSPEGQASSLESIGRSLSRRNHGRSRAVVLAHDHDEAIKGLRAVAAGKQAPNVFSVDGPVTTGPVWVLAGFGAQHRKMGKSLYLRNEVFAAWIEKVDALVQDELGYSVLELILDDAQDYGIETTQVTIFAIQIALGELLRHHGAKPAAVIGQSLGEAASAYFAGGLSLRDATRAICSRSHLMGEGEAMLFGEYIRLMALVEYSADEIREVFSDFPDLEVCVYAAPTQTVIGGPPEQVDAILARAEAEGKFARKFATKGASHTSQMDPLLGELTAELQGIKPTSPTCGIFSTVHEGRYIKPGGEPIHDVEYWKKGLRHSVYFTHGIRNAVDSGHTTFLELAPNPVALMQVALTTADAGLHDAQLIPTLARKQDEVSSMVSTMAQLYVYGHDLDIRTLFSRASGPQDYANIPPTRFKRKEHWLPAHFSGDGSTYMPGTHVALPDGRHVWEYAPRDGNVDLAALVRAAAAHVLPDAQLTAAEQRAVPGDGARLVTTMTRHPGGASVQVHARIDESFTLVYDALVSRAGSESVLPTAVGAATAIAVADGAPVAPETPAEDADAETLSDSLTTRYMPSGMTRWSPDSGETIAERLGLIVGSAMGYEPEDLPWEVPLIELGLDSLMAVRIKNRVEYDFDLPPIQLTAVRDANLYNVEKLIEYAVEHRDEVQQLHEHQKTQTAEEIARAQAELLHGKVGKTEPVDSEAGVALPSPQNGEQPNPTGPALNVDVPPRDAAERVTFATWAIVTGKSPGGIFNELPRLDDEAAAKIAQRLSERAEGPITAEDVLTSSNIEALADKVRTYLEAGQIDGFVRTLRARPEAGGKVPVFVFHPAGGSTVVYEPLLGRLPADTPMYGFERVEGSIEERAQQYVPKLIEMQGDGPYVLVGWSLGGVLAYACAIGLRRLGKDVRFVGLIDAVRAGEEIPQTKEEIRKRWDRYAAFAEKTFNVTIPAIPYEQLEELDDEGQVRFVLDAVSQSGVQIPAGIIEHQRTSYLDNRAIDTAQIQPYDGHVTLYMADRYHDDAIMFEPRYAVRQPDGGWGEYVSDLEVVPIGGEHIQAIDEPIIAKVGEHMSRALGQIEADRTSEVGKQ

Measurements from “University of Dundee, Small-Polar-MMV Screening Library” (2021), ChEMBL document CHEMBL3988442.

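Polyketide synthase Pks13, Mycobacterium tuberculosis (UniProt I6X8D2). Enzyme assay of the thioesterase domain of polyketide synthase 13; the read-out is not stated. Compounds at 30 µM. Higher reads as stronger inhibition (inferred from which compounds were picked for retests). Size under these conditions: about 67,000 compounds, about 300 of them at 50% or above in at least one test.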

Results are given as percent effect. The controls that fix the scale are not given in the record; negative values are as filed. This is an unselected part of the compounds tested.

Compound,percent effect
O=C(c1cc(CC2(NCc3ccccc3)COC2)no1)N1CCCCC1,-9.534
O=C1[C@@H]2CCN(Cc3ccncc3)C[C@@H]2OCCN1c1ccccc1,-39.85
CCc1nnc2n1CCN(C(=O)CCc1ccc(C)c(Cl)c1)C2,-11.16
COc1ccc(C(=O)N2Cc3cc(C)ccc3OCC2CN(C)C)cc1 (centres unmarked),14.33
Cc1cnc(C(=O)N2C[C@H]3CN(Cc4cccc(F)c4)C(=O)[C@H]3C2)cn1,-8.414
CCC1C(=O)NCCN1c1nccc(C)n1 (centres unmarked),13.66
O=C(C1CCCO1)N1CCCn2c(nnc2Cn2cccc2)C1 (centres unmarked),-27.4
COc1ccc(F)c(NCc2cnn(C3CCS(=O)(=O)C3)c2)c1 (centres unmarked),-37.54
Cn1cc(CCCNC(=O)NC2CCN(c3ccccc3)C2=O)cn1 (centres unmarked),-32.29
CCOc1ccccc1-n1c(C2CCC2)n[nH]c1=O,-1.466
CCc1noc(CC)c1CC(=O)N1CCN(C(=O)C2CCCC2)CC1,-15.33
Cc1nn(C)cc1-c1ccnc(N2CCN(c3ccccc3)C(=O)C2)n1,-22.63
O=C(NCCn1cccc1)C1CCC(=O)N(C2CCCC2)C1 (centres unmarked),-6.738
CSCCc1ccc(NC(=O)NC(C)Cn2cncn2)cc1 (centres unmarked),-9.203
NC(=O)c1cccc(CS(=O)(=O)CC(O)Cn2cccn2)c1 (centres unmarked),-11.77
Fc1ccc(-c2nc(CNC3CCc4ncnn4C3)co2)cc1 (centres unmarked),-3.858
O=C(c1ccc(Cn2ccccc2=O)o1)N1CCSCC1,-18.27
CC(C)=CCN1C(=O)[C@H]2CC[C@@H]1CN(Cc1cccnc1N)C2,-10.97
CN(CCn1cccn1)c1cc(C(F)(F)F)nc(-c2cccnc2)n1,2.563
COc1cc(C(N)=O)c(N(C)S(C)(=O)=O)cc1OC,11.27
Cc1ccc(NC(=O)C2CSCN2C(=O)c2cnccn2)cc1C (centres unmarked),-27.76
O=C(c1cccs1)N1CC[C@H]2C[C@@H](c3nnc(C4CC4)o3)O[C@@H]2C1,-2.255
Cc1ccccc1CC(=O)N1CCOCC1c1c(C)n[nH]c1C (centres unmarked),-60.3
N#Cc1cccc(C(=O)N2CCCC(C(=O)CCc3ccccc3)C2)c1 (centres unmarked),-0.6926
O=C(CCn1cccn1)NCCOc1ncc(Cl)cc1Cl,-8.844
COCCn1ccc(NC(=O)Nc2ccc(C(N)=O)c(F)c2)n1,-30.35
CC(C)c1nccn1C1CCCN(C(=O)c2ccsc2)C1 (centres unmarked),-22.11
Cc1cnc(CN2CCN(C(C)c3nc(C4CC4)no3)CC2)cn1 (centres unmarked),-9.749
Cc1ccc(CSc2ncc(Br)c(C(=O)O)n2)cc1,2.193
O=S(=O)(CCN1CCN(c2ccccc2O)CC1)c1ccc(Br)cc1,-8.701
CCn1cc2c(n1)CN(S(=O)(=O)c1ccc(C)cc1)CC2COC (centres unmarked),-45.3
CC(C)COCCNC1CCN(c2ccccn2)CC1,-3.63
CNc1nc2c(s1)C(c1c(Cl)cccc1Cl)CC(=O)N2 (centres unmarked),-55.17
COc1cccc(CCC(=O)N2CCN(CC(C)(C)O)CC2)c1,-10.9
COc1cc(CCC(=O)NC2CC2)ccc1OCC(F)(F)F,-4.624
Cc1cc(OCCC(=O)Nc2cccc(F)c2)nnc1C,-6.602
CC(C)(C)c1cc(NC(=O)CN2CCCCC2Cn2cncn2)on1 (centres unmarked),-40.91
CN(Cc1nnc(C2CC2)n1C)C(=O)c1ccnc(OC2CCC2)c1,-18.1
CN1C(=O)[C@H]2CC[C@@H]1CN(c1ncnc3ccsc13)C2,38.1
N#Cc1c(N)nc2c(c1-c1c[nH]nc1C1CCCCC1)COCC2,0.9459
CC(C)CCOCCNC(=O)Nc1cc(C(F)(F)F)c[nH]c1=O,-18.4
Cc1nc[nH]c1-c1nccn1-c1cccc(CN2CCCC2)c1,10.78
c1ccc(OC2COC3(CCN(CC4CC4)CC3)C2)nc1 (centres unmarked),41.21
Cc1cc(CN2CCOC(CNc3cccnn3)C2)on1 (centres unmarked),-8.711
O=c1[nH]c2nc(N3CCCC3)ncc2c(=O)n1-c1cccc(F)c1,-2.681
Cc1noc(C)c1S(=O)(=O)NC(=O)COc1cccc(C(C)C)c1,-13.1
CCc1nc(CNC(=O)C2CCC(=O)N(Cc3ccccc3F)C2)no1 (centres unmarked),-5.964
N#Cc1ccccc1C(=O)N1C[C@H](CO)C[C@H](CN2CCCC2)C1,10.58
c1cncc(C[C@H]2[C@H](N3CCOCC3)CCN2Cc2nccs2)c1,-11.15
Cc1cnn(CCNCc2nccn2Cc2ccccc2)c1,-2.605
Cc1cc(C(=O)NCc2ccnc(N3CCN(C)CC3)c2)no1,-12.2
CN1CCC(C(=O)N2CCN(Cc3cccc(Cl)c3)CC2)CC1=O (centres unmarked),-11.68
Cc1ncc(CNC(=O)Cc2ccc(Cl)cc2)c(C2CCCN2C)n1 (centres unmarked),-31.38
CN(CCC(F)(F)F)C(=O)[C@H]1CSCN1C(=O)OC(C)(C)C,-17.08
CN(Cc1nnc2n1CCC2)C(=O)c1ccc2c(c1)OCCCO2,-8.394